Binding data for one substance are collected here from publication PMC10742985.

Sequences of proteins named here, by UniProt entry; tags and fusion partners are left off. A change or cut given only in a name is not applied to a line headed by its entry.
UniProt P13497: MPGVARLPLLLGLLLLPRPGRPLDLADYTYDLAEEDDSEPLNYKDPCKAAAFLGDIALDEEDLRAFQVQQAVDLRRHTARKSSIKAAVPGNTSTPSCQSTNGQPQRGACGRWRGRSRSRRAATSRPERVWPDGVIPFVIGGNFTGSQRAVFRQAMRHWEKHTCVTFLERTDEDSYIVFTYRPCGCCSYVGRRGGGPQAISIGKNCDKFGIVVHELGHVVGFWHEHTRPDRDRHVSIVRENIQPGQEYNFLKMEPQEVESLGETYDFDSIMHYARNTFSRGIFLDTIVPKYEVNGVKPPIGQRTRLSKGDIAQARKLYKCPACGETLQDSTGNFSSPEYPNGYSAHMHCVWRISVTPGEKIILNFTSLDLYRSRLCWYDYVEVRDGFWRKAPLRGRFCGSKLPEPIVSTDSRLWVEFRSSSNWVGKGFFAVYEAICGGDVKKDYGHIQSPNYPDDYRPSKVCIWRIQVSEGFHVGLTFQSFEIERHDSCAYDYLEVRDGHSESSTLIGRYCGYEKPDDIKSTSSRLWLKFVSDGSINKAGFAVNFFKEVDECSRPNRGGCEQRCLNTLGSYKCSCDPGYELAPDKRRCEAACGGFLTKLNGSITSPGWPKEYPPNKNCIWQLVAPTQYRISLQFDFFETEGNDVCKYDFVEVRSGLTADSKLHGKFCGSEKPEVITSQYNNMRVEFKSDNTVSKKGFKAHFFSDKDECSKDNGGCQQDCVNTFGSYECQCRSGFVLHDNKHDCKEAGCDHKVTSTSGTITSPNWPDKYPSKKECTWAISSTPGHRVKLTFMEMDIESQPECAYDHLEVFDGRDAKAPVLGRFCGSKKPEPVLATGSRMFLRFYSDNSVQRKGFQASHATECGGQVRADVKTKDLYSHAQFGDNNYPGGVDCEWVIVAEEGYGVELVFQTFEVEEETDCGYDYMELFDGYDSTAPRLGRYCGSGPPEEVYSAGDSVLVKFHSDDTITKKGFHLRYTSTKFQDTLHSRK

For this assay, the target named is T1, Vitamin D Receptor (VDR) (human (endogenous in papillary thyroid cancer tissue)) (UniProt P11473).
T1 sequence: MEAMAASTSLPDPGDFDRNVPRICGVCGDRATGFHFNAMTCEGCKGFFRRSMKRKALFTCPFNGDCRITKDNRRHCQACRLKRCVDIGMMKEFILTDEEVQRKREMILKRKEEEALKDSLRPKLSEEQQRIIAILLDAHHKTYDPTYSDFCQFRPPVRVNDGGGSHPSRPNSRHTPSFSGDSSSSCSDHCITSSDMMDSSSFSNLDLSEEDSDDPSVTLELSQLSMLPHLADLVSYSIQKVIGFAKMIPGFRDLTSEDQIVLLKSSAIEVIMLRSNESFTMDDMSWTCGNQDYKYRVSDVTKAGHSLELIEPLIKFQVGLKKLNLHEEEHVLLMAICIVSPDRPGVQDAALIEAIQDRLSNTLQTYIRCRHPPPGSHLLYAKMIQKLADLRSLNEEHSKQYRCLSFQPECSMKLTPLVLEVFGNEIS
In words: co-IP; reverse immunoprecipitation with VDR antibody (rat, Invitrogen) as bait from precleared RIPA lysates of fresh papillary thyroid cancer tissue, Protein A/G magnetic beads, 4 °C; supernatant and beads blotted.

Results are given in words; binding and its absence hold for the method and conditions named. In cells and extracts the contact can be indirect.

Turning to “bone morphogenetic protein-1 (BMP-1) (from UniProt P13497)”, the binding entry is “no binding”.
